Measured values: patent publication US9399904B2, “Oil recovery system and method” (SHELL OIL COMPANY, priority 2013, dated 2016)

Assay: Oil recovery from oil saturated formation core by brine displacement followed by DMS displacement
Procedure: Incremental recovery of oil from a formation core using an oil recovery formulation consisting of dimethyl sulfide following oil recovery from the core by water-flooding was measured to evaluate the effectiveness of DMS as a tertiary oil recovery agent.
Two 5.02 cm long Berea sandstone cores with a core diameter of 3.78 cm and a permeability between 925 and 1325 mD were saturated with a brine having a composition as set forth in Table 7.
After saturation of the cores with brine, the brine was displaced by a Middle Eastern Asphaltic crude oil having the characteristics as set forth above in Table 3 to saturate the cores with oil.
Oil was recovered from each oil saturated core by the addition of brine to the core under pressure and by subsequent addition of DMS to the core under pressure. Each core was treated as follows to determine the amount of oil recovered from the core by addition of brine followed by addition of DMS. Oil was initially displaced from the core by addition of brine to the core under pressure. A confining pressure of 1 MPa was applied to the core during addition of the brine, and the flow rate of brine to the core was set at 0.05 ml/min. The core was maintained at a temperature of 50° C. during displacement of oil from the core with brine. Oil was produced and collected from the core during the displacement of oil from the core with brine until no further oil production was observed (24 hours). After no further oil was displaced from the core by the brine, oil was displaced from the core by addition of DMS to the core under pressure. DMS was added to the core at a flow rate of 0.05 ml/min for a period of 32 hours for the first core and for a period of 15 hours for the second core. Oil displaced from the core during the addition of DMS to the core was collected separately from the oil displaced by the addition of brine to the core.
The oil samples collected from each core by brine displacement and by DMS displacement were isolated from water by extraction with dichloromethane, and the separated organic layer was dried over sodium sulfate. After evaporation of volatiles from the separated, dried organic layer of each oil sample, the amount of oil displaced by brine addition to a core and the amount of oil displaced by DMS addition to the core were weighed. Volatiles were also evaporated from a sample of the Middle Eastern asphaltic oil to be able to correct for loss of light-end compounds during evaporation.

[1] = Core 1, DMS 0.05 ml/min for 32 hours after brine displacement
[2] = Core 2, DMS 0.05 ml/min for 15 hours after brine displacement

CSC [Dimethyl Sulfide, dimethyl sulfide]
Oil produced DMS displacement [1]: 3.5 mL
Oil produced DMS displacement (of % oil initially in core) [1]: 32%
Oil produced DMS displacement [2]: 3.3 mL
Oil produced DMS displacement (of % oil initially in core) [2]: 30%
